HELM strings list residues between dots; [ac] is acetyl, [am] amide, other brackets name non-standard units.
Test: general procedure: Fmoc solid-phase peptide synthesis; preloaded (L-Arg or D-Ala) 2-Cl-Trt resin; HBTU/HOBt; HATU for double couplings at Pro; PyBOP/HOBt/DIPEA for cyclization
Conditions: conjugation step

Work on PAPTPL-I-DA7R yielded a conjugation yield (on PAPTPL-I) of 13% yield.

For PAPTPL-Teg-cA7R, the conjugation yield (head-to-tail ring) was 47% yield.

In the case of “PEPTIDE1{[PAPTPL-Teg-trz-C4CO].[dR].[dP].[dP].[dL].[dW].[dT].[dA]}$$$$V2.0”, the conjugation yield is reported as 76% yield.

Source: PMC10221132 (Pharmaceutics, 2023)
